Reference: PubChem BioAssay AID1159508 (Drosophila RNAi Screening Center, 2015)
In all, the deposit lists 812 reagents; shown is a part drawn at random. Of all reagents, 18 (2.2%) are marked active. 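Calls include both increased and decreased ATP; roughly one in four reagents has no third replicate value.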 Unmarked entries are inactive. The record does not give: the amount of reagent.

Screen: 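Overall cell fitness after RNAi as a quality check of the library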
Cell system: Drosophila S2R+ cells
Reagents: long dsRNA against Drosophila genes
Timing: 5 days
Detection: 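Total ATP per well measured by luciferase luminescence after 5 days, expressed as z-scores for each replicate and as their average across up to three replicates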
Reading the numbers: mean ATP z-score and ATP z-score: higher = more total ATP luminescence
Active means: In these data the active calls have mean ATP z-score at about -2 or lower, or at about 2 or higher
Meaning of the calls: active = strong ATP change (up or down); inactive = no strong ATP change

| target | amplicon | mean ATP z-score | ATP z-score, replicate 1 | ATP z-score, replicate 2 | ATP z-score, replicate 3 |
| --- | --- | --- | --- | --- | --- |
| CG3527 | DRSC18307 | 0.402 | 0.362 | 0.391 | – |
| CG3527 | DRSC28450 | -0.235 | -0.331 | -0.331 | 0.00284 |
| Rnmt (RNA guanine-7 methyltransferase) | DRSC03558 | 0.53 | 0.38 | 0.613 | – |
| Rnmt (RNA guanine-7 methyltransferase) | DRSC42639 | -0.615 | -0.74 | -0.497 | -0.489 |
| CG31156 | DRSC15753 | 0.101 | -0.523 | 0.713 | – |
| CG31156 | DRSC15755 | -0.269 | -0.351 | -0.203 | -0.201 |
| CG31368 | DRSC14951 | 0.0911 | 0.0542 | 0.116 | – |
| CG31368 | DRSC31732 | -0.326 | -0.611 | -0.558 | 0.253 |
| Cpsf100 (Cleavage and polyadenylation specificity factor 100) | DRSC14146 | 1.71 | 1 | 1.47 | 2.32 |
| Cpsf100 (Cleavage and polyadenylation specificity factor 100) | DRSC34503 | 1.6 | 0.739 | 1.63 | 2.12 |
| CG9346 | DRSC04542 | 1.04 | 0.73 | 0.887 | 1.29 |
| CG9346 | DRSC41515 | -0.307 | -0.406 | -0.309 | -0.146 |
| CG9004 | DRSC08617 | 0.123 | -0.174 | 0.09 | 0.43 |
| CG9004 | DRSC42684 | 0.238 | 0.124 | 0.242 | 0.302 |

Part of the list above, reformatted:
{"target":"CG3527","amplicon":"DRSC28450","mean ATP z-score":-0.235,"ATP z-score, replicate 1":-0.331,"ATP z-score, replicate 2":-0.331,"ATP z-score, replicate 3":0.00284}
{"target":"Rnmt (RNA guanine-7 methyltransferase)","amplicon":"DRSC03558","mean ATP z-score":0.53,"ATP z-score, replicate 1":0.38,"ATP z-score, replicate 2":0.613}
{"target":"Rnmt (RNA guanine-7 methyltransferase)","amplicon":"DRSC42639","mean ATP z-score":-0.615,"ATP z-score, replicate 1":-0.74,"ATP z-score, replicate 2":-0.497,"ATP z-score, replicate 3":-0.489}

The list goes on:
| target | amplicon | mean ATP z-score | ATP z-score, replicate 1 | ATP z-score, replicate 2 | ATP z-score, replicate 3 |
| --- | --- | --- | --- | --- | --- |
| snRNP-U1-70K (small ribonucleoprotein particle U1 subunit 70K) | DRSC28803 | 1.79 | 1.43 | 1.92 | – |
| snRNP-U1-70K (small ribonucleoprotein particle U1 subunit 70K) | DRSC34940 | 2.05 (active) | 1.86 | 1.99 | – |
| CG7907 | DRSC26041 | 0.376 | 0.305 | 0.339 | 0.412 |
| CG7907 | DRSC32963 | 1.29 | 1.09 | 1.18 | 1.37 |
| lost | DRSC34034 | -0.146 | -0.49 | -0.292 | 0.371 |
| lost | DRSC34368 | -0.313 | -0.511 | -0.0754 | – |
| eEF1gamma (eukaryotic translation elongation factor 1 gamma) | DRSC23655 | -0.347 | -0.353 | -0.335 | -0.287 |
| eEF1gamma (eukaryotic translation elongation factor 1 gamma) | DRSC35716 | 0.595 | -0.0896 | 0.585 | 1.18 |
| Mat89Ba (Maternal transcript 89Ba) | DRSC14540 | -0.41 | -0.39 | -0.378 | – |
| Mat89Ba (Maternal transcript 89Ba) | DRSC29166 | -0.525 | -0.624 | -0.509 | -0.339 |
